This data set deals with XdpR (TetR-like transcriptional regulator), N-terminal His (Agrobacterium bohemicum R89-1). Nature of the data set: EMSA. The settings on record: XdpR concentrated to 0.5 mg/ml, preincubated with 20 uM DNA 1 h at room temperature; 7% blue native PAGE, ethidium bromide stain; protein purified as XdpB; recombinant protein; protein details: N-terminal His (pET28b). Background: Mobility shift assays separate free from complexed probe on a gel.

For at least one entry, the source does not settle the construct or the ends of the probe. Weaker means in comparison with the reference protein, sequence or condition of that experiment.

“CAATCATGATGATCGTCATGAATATA (double strand) [xdo operon operator probe, 26 bp]”: the binding result is on record as “binds”.

On to “CAATTATGATGATCGTTATGAATATA (double strand) [mutated operator probe, 26 bp (negative control)]”, for which the binding result is recorded as “binds more weakly”.

The record behind these values is paper PMC5891007, “The crystal structure of XdpB, the bacterial old yellow enzyme, in an FMN-free form” (PLoS ONE, 2018).
